Experimental data taken from PMC5845016.
No constants are given. Whether binding was seen depends on the method and setting. Binding calls can cover weak binding; strength is not graded here.

Molecular target: T1, NELFE phosphorylated peptide QPFQRSI(p)SADDDLQE (human)
T1 sequence (peptide, phosphoserine at serine 115 (eighth residue of the peptide)): QPFQRSISADDDLQE
Experiment: crystal structure; 14-3-3 epsilon and peptide mixed 1:5; 40% pentaerythritol propoxylate, 0.2 M sodium thiocyanate, 0.1 M HEPES pH 7.0; sitting drop, 293 K; molecular replacement with PDB 2BR9; both purified

- binding: binds
Substance: 14-3-3 epsilon
